Publication PMC10989685
Residue numbers refer to the chain shown, from its start. Results are given in words; binding and its absence hold for the method and conditions named. Some results given as binding are weak or reduced against the parent protein; the word gives no strength. Where a sequence is shown, tags or fusion partners need not be part of it.

Sequences of proteins named here, by UniProt entry; tags and fusion partners are left off. Residues count along the entry.
UniProt E9Q7X7, residues 29-1634: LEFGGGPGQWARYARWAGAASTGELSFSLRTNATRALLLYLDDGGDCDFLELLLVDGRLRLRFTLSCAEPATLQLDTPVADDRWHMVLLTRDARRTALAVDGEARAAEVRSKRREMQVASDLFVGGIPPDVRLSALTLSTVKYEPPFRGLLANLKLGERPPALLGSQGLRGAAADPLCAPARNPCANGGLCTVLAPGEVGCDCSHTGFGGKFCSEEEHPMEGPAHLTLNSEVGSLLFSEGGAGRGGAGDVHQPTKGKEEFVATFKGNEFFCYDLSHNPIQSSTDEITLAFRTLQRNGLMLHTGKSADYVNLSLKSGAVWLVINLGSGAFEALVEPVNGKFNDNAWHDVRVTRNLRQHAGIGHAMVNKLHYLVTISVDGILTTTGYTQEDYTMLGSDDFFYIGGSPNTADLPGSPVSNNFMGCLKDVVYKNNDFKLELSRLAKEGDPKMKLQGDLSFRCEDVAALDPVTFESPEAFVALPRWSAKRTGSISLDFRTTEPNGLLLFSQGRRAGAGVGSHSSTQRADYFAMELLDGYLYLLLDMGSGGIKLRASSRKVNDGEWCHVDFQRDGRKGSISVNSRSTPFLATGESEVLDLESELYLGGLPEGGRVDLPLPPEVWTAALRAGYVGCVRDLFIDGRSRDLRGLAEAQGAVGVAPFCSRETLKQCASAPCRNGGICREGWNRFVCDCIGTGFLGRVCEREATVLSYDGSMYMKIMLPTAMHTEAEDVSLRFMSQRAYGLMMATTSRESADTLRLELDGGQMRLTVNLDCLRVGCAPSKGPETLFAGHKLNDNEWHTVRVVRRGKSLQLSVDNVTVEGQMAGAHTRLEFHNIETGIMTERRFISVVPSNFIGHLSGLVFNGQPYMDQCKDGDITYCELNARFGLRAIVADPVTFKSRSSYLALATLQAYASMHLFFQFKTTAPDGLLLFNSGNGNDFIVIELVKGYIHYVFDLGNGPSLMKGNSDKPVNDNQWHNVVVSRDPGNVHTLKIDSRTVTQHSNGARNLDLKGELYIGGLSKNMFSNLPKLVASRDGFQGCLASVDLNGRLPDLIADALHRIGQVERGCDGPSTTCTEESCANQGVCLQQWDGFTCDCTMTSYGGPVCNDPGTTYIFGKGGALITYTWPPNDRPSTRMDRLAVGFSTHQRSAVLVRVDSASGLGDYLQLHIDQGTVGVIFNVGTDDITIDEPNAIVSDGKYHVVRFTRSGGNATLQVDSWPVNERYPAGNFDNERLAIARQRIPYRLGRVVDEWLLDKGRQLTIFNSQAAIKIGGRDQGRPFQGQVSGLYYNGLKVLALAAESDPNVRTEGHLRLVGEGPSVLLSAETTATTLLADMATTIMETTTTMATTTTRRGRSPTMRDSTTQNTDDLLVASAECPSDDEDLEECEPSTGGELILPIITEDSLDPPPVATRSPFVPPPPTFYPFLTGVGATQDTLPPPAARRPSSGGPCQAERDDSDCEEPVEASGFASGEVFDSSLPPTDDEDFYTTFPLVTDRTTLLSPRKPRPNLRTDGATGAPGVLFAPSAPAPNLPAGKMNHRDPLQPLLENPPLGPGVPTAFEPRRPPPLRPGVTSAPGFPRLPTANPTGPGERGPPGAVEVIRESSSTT

Experiments:
Test in all cases: in situ cell surface binding assay (fluorescence microscopy); HEK293T conditioned medium with Nrxn2α-Fc applied for 1 h at 4°C to COS7 cells expressing HA-tagged IgSF21 forms, in extracellular solution with 2 mM CaCl2, 1.3 mM MgCl2; bound Fc signal divided by surface HA signal and normalised to IgSF21 WT
IgSF21-HA E56D (mouse) = molecular target: T1, IgSF21-HA E56D (mouse) (UniProt Q7TNR6)
T1 sequence: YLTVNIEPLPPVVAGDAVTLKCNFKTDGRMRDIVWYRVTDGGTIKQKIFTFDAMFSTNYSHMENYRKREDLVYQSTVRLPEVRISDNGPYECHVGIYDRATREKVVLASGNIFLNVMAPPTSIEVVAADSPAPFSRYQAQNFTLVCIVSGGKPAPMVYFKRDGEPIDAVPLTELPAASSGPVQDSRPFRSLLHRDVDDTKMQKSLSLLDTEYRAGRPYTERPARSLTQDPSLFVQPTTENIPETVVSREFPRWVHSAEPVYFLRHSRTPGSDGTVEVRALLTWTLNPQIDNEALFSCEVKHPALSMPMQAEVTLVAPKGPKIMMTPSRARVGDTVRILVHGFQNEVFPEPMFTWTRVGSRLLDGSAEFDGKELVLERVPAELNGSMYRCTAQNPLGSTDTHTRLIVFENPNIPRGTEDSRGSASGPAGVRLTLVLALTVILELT

[1] = molecular target: T2, IgSF21-HA E56N/V58T (mouse) (UniProt Q7TNR6)
T2 sequence: T1 sequence with D32N, V34T

IgSF21-HA E56R (mouse) = molecular target: T3, IgSF21-HA E56R (mouse) (UniProt Q7TNR6)
T3 sequence: T1 sequence with D32R

IgSF21-HA K45R (mouse) = molecular target: T4, IgSF21-HA K45R (mouse) (UniProt Q7TNR6)
T4 sequence: T1 sequence with K21R, D32E

IgSF21-HA R55D (mouse) = molecular target: T5, IgSF21-HA R55D (mouse) (UniProt Q7TNR6)
T5 sequence: T1 sequence with R31D, D32E

binding (IgSF21-HA E56D (mouse)): no binding
binding [1]: no binding
binding (IgSF21-HA E56R (mouse)): no binding
binding (IgSF21-HA K45R (mouse)): binds
binding (IgSF21-HA R55D (mouse)): no binding
Substance: soluble Fc-tagged mouse Nrxn2α ectodomain (Nrxn2α-Fc) (from UniProt E9Q7X7 29-1634) (Fc fusion)
